# From patent publication US20110077210A1 (published 2011)
# Protein sequences, listed by entry. Tags and fused reporters are not part of them. Lines headed by an entry give the natural chain unless they say otherwise; changes in a name come on top.
# UniProt Q13547: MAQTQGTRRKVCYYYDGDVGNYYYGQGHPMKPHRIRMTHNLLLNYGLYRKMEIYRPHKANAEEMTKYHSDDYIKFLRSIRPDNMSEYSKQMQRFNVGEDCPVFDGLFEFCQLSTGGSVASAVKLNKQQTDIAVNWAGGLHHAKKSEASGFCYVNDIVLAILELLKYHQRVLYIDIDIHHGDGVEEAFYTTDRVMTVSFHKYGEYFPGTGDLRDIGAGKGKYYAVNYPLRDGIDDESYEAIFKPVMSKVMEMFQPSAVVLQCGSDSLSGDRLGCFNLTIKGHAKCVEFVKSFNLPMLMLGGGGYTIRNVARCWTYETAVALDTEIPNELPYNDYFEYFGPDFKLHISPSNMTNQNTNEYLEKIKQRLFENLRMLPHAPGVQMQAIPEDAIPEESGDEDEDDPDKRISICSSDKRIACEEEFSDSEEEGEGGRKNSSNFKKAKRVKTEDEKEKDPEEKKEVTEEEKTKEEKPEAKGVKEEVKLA
# No constants are given. Whether binding was seen depends on the method and setting. In cells and extracts the contact can be indirect. Some binding calls cover weakened binding; strength is not graded here. Sequences can lack the tags named with a protein.
# B1: fragment of APPL (aa 489-639) identified in the yeast two-hybrid screen (other)
# chain: TKSETEDSILHQLFIVRFLGSMEVKSDDHPDVVYETMRQILAARAIHNIFRMTESHLLVTCDCLKLIDPQTQVTRLTFPLPCVVLYATHQENKRLFGFVLRTSSGRSESNLSSVCYIFESNNEGEKICDSVGLAKQIALHAELDRRASEKQ
# notes: Prey from a human brain cDNA library; The fragment fully overlaps the PTB domain (aa 500-634); also called APPL-PTB; fragment of DIP13alpha
# B2: V5-APPL (full length APPL protein) (other, not shown: small tags and cut ends)
# chain: MPGIDKLPIEETLEDSPQTRSLLGVFEEDATAISNYMNQLYQAMHRIYDAQNELSAATHLTSKLLKEYEKQRFPLGGDDEVMSSTLQQFSKVIDELSSCHAVLSTQLADAMMFPITQFKERDLKEILTLKEVFQIASNDHDAAINRYSRLSKKRENDKVKYEVTEDVYTSRKKQHQTMMHYFCALNTLQYKKKIALLEPLLGYMQAQISFFKMGSENLNEQLEEFLANIGTSVQNVRREMDSDIETMQQTIEDLEVASDPLYVPDPDPTKFPVNRNLTRKAGYLNARNKTGLVSSTWDRQFYFTQGGNLMSQARGDVAGGLAMDIDNCSVMAVDCEDRRYCFQITSFDGKKSSILQAESKKDHEEWICTINNISKQIYLSENPEETAARVNQSALEAVTPSPSFQQRHESLRPAAGQSRPPTARTSSSGSLGSESTNLAALSLDSLVAPDTPIQFDIISPVCEDQPGQAKAFGQGGRRTNPFGESGGSTKSETEDSILHQLFIVRFLGSMEVKSDDHPDVVYETMRQILAARAIHNIFRMTESHLLVTCDCLKLIDPQTQVTRLTFPLPCVVLYATHQENKRLFGFVLRTSSGRSESNLSSVCYIFESNNEGEKICDSVGLAKQIALHAELDRRASEKQKEIERVKEKQQKELNKQKQIEKDLEEQSRLIAASSRPNQASSEGQFVVLSSSQSEESDLGEGGKKRESEA
# Tests used:
# HA-APPL-PTB (human) = target: T1, HA-APPL-PTB (human) (UniProt Q9UKG1); experiment: reverse coimmunoprecipitation (IP of APPL-PTB) from HEK293 cells
# T1 sequence: B1 chain
# [1] = target: HDAC1-flag (Homo sapiens (Human)) (UniProt Q13547); experiment: coimmunoprecipitation (IP of HDAC1) from transfected HEK293 cells, Western blot
# [2] = target: HDAC1-flag (Homo sapiens (Human)) (UniProt Q13547); experiment: coimmunoprecipitation from transfected HEK293 cells, Western blot (FIG. 1A)
# [3] = target: HDAC1-flag (Homo sapiens (Human)) (UniProt Q13547); experiment: coimmunoprecipitation from transfected HEK293 cells, Western blot (FIG. 1B)
Molecule,binding (HA-APPL-PTB (human)),binding [1],binding [2],binding [3]
HDAC1-flag (from UniProt Q13547 1-482) (enzyme),binds,,,
B1,,binds,binds,
B2,,binds,,binds
